Data: patent US20110250207A1 (OREGON HEALTH AND SCIENCE UNIVERSITY, published 2011)

Experiments:
[1] = biological target: fXI A1 domain fused to tissue plasminogen activator; assay: immunoblot of fXI apple domain-tPA fusion proteins with 14E11
[2] = biological target: fXI A3 domain fused to tissue plasminogen activator; assay: as above
[3] = biological target: fXI A4 domain fused to tissue plasminogen activator; assay: as above
[4] = biological target: fXI A2 domain fused to tissue plasminogen activator; assay: immunoblot of fXI apple domain-tPA fusion proteins with 14E11 (FIG. 10B)
anteater fXI (anteater) = assay: immunoprecipitation from serum with 14E11 beads, western blot with biotinylated 14E11
[5] = biological target: African elephant fXI (African elephant); assay: immunoprecipitation from plasma with 14E11 beads, western blot with biotinylated 14E11
baboon fXI (baboon) = assay: as above
cat fXI (cat) = assay: as above
dog fXI (dog) = assay: as above
horse fXI (horse) = assay: as above
llama fXI (llama) = assay: as above
pig fXI (pig) = assay: as above
rabbit fXI (rabbit) = assay: as above
raccoon fXI (raccoon) = assay: as above
tiger fXI (tiger) = assay: as above

binding [1]: no binding | binding [2]: no binding | binding [3]: no binding | binding [4]: binds | binding (anteater fXI (anteater)): binds | binding [5]: binds | binding (baboon fXI (baboon)): binds | binding (cat fXI (cat)): binds | binding (dog fXI (dog)): binds | binding (horse fXI (horse)): binds | binding (llama fXI (llama)): binds | binding (pig fXI (pig)): binds | binding (rabbit fXI (rabbit)): binds | binding (raccoon fXI (raccoon)): binds | binding (tiger fXI (tiger)): binds
B1: monoclonal antibody 14E11 (antibody, V domains shown)
VH: QVQLEESGPGLVAPSQSLSITCTVSGFSLTGYGIYWVRQPPGKGLEWLGMIWGDGRTDYNSALKSRLSISKDNSKSQVFLKMNSLQTDDTARYYCARDYYGSKDYWGQGTTLTVSS
VL: DIVMTQSHKFMSTSVGDRVSITCKASQDVSTAVAWYQQKPGQSPKLLIYLTSYRNTGVPDRFTGSGSGTDFTFTISSVQAEDLAVYYCQQHYKTPYSFGGGTKLERLR
notes: also called anti-murine fXI IgG 14E11; anti-fXI IgG 14E11

No constants are given. Whether binding was seen depends on the method and setting. For part of these data: A result given as binding can be weak or reduced; the word gives no strength.
